Laboratory results as given in publication doi:10.1101/2022.06.15.496240.

Chains of the proteins cited; added tags and fusions are not shown. Lines headed by an entry give the natural chain unless they say otherwise; changes in a name come on top.
UniProt Q22235: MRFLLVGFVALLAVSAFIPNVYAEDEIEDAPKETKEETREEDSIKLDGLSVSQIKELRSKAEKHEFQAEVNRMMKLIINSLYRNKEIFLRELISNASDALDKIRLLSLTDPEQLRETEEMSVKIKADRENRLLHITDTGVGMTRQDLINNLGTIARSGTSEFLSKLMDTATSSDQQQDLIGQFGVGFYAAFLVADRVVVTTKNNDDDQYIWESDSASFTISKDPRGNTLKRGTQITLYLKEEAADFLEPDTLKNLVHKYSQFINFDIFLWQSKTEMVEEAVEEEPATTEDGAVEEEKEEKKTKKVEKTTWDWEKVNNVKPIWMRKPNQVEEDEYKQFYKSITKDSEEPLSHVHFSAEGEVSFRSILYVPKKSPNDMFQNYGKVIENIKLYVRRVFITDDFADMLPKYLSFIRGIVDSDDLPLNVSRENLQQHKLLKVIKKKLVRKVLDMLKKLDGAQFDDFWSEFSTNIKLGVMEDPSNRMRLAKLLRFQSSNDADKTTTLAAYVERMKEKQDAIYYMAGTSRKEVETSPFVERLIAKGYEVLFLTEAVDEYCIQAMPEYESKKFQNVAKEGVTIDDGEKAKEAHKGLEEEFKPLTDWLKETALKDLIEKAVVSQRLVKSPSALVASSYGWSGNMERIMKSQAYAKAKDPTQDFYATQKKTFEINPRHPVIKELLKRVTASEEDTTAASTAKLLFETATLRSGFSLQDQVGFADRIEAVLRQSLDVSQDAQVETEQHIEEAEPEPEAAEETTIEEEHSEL

Target: T1, ASNA-1::GFP (C. elegans) (UniProt P30632)
T1 sequence: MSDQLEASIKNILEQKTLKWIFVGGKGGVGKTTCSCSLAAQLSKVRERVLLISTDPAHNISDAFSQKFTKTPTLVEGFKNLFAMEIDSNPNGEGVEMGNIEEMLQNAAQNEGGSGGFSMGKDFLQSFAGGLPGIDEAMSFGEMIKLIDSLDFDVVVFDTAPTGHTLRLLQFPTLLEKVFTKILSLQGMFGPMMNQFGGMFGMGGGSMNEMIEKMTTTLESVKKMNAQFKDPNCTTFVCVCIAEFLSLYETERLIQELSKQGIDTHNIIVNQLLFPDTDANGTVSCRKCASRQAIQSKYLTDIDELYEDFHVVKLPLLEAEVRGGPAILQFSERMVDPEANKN
Assay: co-IP

Substance	binding
3xFlag::ENPL-1(ΔCBD) (from UniProt Q22235)	binds
Ollas::DAF-28::MYC (C. elegans)	no binding

These are yes or no findings as the source states them, for the method shown. In cells and extracts the contact can be indirect. A result given as binding can be weak or reduced; the word gives no strength. Sequences can lack the tags named with a protein.
